Measurements as given in patent publication US11667697.

Columns and labels:
[1] = biological target: VACV A25 protein (vaccinia virus); assay: lysate ELISA
[2] = biological target: VACV A25 protein (vaccinia virus); assay: antigen ELISA/array/BLI
[3] = biological target: VACV H5 protein (vaccinia virus); assay: lysate ELISA
[4] = biological target: VACV H5 protein (vaccinia virus); assay: antigen ELISA/array/BLI

B1: VACV-309 (antibody, V domains shown)
VH: EVQLLESGGGLVQPGESLKLSCAASGFTFSSYAMNWVRQAPGKGLEWVSGISGSGGSTYYADSVKGRFTVSRDNSKNTLYLQMNSLRAEDTAVYYCAKDNNYYYYGMDVWGQGTTVTVSS
VL: AIQMTQSPSSLSASVGDRVTITCRASQGIRNDLGWYQQKPGKAPKLLIYAASSLQSGVPSRFSGSGSGTDFTLTISSLQPEDFATYYCLQDYNYPRMFGQGTKVDIK
binding [1]: binds | binding [2]: binds

B2: VACV-308 (antibody, V domains shown)
VH: QVQLVQSGAEVKKPGSSVKVSCKGSGDSFRSYAISWVRQAPGQGLEWMGGIIPRFGTTNYAQKFQDRVTITADKSTTTAYMELRSLKCEDTGVYYCARPQSAYDFGPFDHWGQGTLVTVSS
VL: SYELTQPPSLSVAPGKTARITCGGDNIGSKGVHWYQQKPGQAPVVVISYDSDRPSGIPERFSGSNSGDTATLTISRVEAGDEADYYCHVWHTTTDHYVFGTGTKVTVL
binding [3]: binds | binding [4]: binds

No constants are given. Whether binding was seen depends on the method and setting. Binding calls can cover weak binding; strength is not graded here.
